# Earlier results, collected in patent US20150291610A1, “C20' Urea Derivatives of Vinca Alkaloids” (THE SCRIPPS RESEARCH INSTITUTE, priority 2012, published 2015).
# Some results were stated once for a whole list of compounds, not compound by compound.
# System: HCT116 (human colorectal carcinoma) cells
# Settings: initial report, Leggans et al. 2012; cited from earlier work
compound,measurement,value
CCC1(NC(C)=O)CC2CN(CCc3c([nH]c4ccccc34)C(C(=O)OC)(c3cc4c(cc3OC)N(C)C3C(O)(C(=O)OC)C(OC(C)=O)C5(CC)C=CCN6CCC43C65)C2)C1 (stereo not shown) [Compound 9],fold less active than the urea 11,more than 10 fold
